{
  "source": "patent US20240150286A1",
  "about": "“PEROXISOME PROLIFERATOR-ACTIVATED RECEPTOR GAMMA (PPARy) LIGANDS AND METHODS OF USE AS TREATMENTS FOR INSULIN RESISTANCE, OBESITY, FATTY LIVER DISEASE, AND TYPE 2 DIABETES” (The Board of Regents of the University of Oklahoma, priority 2022, published 2024)",
  "system": "PPARγ S273 phosphorylation",
  "assay": "PPARγ S273 phosphorylation and phosphorylation-dependent genes in 3T3-L1 differentiated adipocytes",
  "format": "cell-based, mouse",
  "conditions": "TNFα 10 ng/ml 1 h, compounds at 10 μM, Western blot",
  "protocol": "Total RNA (2 μg) was isolated from tissues or cells using TRIzol reagents (Life Technologies) and reverse transcribed using oligo d(T) primers (New England Biosystems) and SuperScript IV reverse transcription kit (Applied Biosystems). qPCR was performed in a CFX96 Touch Real-Time PCR detection system using SYBR Green mix (Applied Biosystems). The amplification program was as follows: initial denaturation at 95° C. for 15 min, followed by 40 cycles of 95° C. for 15 s, 60° C. for 1 min, and 40° C. for 30 s. Relative mRNA expression was determined by the ΔΔCt method normalized to TBP mRNA.",
  "note": "For at least one compound, name, drawing or mass did not settle the structure.",
  "data": [
    {"smiles": "CN(CCOc1ccc(CC2SC(=O)NC2=O)cc1)c1ccccn1", "note": "(stereo not shown) [Rosi, rosiglitazone, reference compound]", "values": [
      {"measurement": "S273 phosphorylation of PPARγ", "value": "significantly inhibited"}
    ]}
  ]
}
